# Assay results published in the supplement of paper PMC6411743.
# ± gives the standard deviation of the averaged measurements. The list shows a part of the results.
# Assays:
# Experiment in all cases: NP40-soluble protein abundance relative to vehicle (solubility fold change) (ratio); higher = more soluble protein in presence of GTP
# [1] = molecular target: T1, Q5TBI2 and related entries (UniProt Q8NDD1)
# T1 sequence (whole entry): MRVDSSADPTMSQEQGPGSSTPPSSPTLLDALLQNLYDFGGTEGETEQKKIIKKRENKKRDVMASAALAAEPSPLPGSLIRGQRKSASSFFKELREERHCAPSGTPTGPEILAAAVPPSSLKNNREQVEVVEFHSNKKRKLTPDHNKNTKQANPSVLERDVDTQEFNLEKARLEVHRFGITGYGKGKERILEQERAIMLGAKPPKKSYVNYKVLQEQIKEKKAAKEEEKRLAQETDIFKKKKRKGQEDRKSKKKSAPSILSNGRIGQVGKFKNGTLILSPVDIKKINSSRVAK
# Method in brief: (§1)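 Eight concentrations, 0.1 to 10 mM, were tested on Jurkat crude lysate for 10 min at room temperature and then 3 min at 37 °C, in three independent experiments. The lysate was solubilised with 0.8% NP40 and benzonase, ultracentrifuged, and the supernatant TMT-labelled for LC-MS/MS. Each value is the fold change against the detergent-processed vehicle in its own replicate, from vsn-normalised intensities.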
# SLFN11 = molecular target: T2, SLFN11 (UniProt Q7Z7L1)
# T2 sequence (whole entry): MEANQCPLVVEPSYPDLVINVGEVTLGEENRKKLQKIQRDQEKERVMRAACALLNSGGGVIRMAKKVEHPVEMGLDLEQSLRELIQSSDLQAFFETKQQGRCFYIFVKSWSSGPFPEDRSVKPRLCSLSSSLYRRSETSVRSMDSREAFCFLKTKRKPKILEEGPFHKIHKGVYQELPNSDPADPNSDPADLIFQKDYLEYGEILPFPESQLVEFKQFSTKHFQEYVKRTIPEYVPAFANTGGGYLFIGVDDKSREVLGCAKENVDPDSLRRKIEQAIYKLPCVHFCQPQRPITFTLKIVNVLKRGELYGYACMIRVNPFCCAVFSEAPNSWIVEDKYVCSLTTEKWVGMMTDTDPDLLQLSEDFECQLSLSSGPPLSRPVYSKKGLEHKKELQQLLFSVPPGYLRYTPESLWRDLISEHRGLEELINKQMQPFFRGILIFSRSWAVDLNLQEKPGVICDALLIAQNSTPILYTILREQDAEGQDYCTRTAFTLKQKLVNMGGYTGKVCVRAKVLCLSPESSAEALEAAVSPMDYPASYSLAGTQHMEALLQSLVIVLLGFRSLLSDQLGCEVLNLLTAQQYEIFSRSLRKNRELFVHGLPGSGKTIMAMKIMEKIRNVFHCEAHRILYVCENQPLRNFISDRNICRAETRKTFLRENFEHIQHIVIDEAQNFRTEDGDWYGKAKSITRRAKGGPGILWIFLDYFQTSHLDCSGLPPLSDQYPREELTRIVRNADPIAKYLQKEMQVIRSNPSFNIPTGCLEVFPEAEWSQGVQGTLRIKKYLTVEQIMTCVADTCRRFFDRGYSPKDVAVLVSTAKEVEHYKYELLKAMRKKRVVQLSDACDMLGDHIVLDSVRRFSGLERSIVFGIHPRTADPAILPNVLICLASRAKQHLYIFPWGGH
# Method in brief: as §1
# UniProt Q5VST6 = molecular target: T3, UniProt Q5VST6
# T3 sequence (whole entry): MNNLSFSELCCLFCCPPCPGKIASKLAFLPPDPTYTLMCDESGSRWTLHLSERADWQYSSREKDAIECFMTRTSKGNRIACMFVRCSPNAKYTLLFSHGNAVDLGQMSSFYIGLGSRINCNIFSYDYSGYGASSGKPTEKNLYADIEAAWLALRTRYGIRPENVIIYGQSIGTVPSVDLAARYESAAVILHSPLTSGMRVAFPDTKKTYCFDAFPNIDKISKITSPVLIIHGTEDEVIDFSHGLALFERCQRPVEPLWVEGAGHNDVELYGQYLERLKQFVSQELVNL
# Method in brief: as §1
# UniProt Q5W0B1 = molecular target: T4, UniProt Q5W0B1
# T4 sequence (whole entry): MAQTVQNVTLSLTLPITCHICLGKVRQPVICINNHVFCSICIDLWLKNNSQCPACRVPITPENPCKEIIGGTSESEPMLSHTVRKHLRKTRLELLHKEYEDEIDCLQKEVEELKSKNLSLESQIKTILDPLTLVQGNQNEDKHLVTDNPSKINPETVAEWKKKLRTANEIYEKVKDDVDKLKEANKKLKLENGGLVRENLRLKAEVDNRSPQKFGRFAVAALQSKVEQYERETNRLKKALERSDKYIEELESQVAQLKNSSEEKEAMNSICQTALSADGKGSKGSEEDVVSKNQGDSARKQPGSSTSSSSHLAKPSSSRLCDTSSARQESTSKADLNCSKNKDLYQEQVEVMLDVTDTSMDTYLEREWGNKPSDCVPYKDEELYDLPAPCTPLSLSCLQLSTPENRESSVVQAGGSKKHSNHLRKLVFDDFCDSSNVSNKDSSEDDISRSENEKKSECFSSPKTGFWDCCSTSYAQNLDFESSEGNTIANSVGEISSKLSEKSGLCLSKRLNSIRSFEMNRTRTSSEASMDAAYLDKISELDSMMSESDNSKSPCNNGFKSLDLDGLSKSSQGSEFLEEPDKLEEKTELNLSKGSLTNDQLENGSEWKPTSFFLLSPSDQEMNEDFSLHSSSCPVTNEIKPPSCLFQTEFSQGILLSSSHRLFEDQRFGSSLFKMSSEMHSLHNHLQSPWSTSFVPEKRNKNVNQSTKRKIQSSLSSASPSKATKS
# Method in brief: as §1
# UniProt Q68CQ4 = molecular target: T5, UniProt Q68CQ4
# T5 sequence (whole entry): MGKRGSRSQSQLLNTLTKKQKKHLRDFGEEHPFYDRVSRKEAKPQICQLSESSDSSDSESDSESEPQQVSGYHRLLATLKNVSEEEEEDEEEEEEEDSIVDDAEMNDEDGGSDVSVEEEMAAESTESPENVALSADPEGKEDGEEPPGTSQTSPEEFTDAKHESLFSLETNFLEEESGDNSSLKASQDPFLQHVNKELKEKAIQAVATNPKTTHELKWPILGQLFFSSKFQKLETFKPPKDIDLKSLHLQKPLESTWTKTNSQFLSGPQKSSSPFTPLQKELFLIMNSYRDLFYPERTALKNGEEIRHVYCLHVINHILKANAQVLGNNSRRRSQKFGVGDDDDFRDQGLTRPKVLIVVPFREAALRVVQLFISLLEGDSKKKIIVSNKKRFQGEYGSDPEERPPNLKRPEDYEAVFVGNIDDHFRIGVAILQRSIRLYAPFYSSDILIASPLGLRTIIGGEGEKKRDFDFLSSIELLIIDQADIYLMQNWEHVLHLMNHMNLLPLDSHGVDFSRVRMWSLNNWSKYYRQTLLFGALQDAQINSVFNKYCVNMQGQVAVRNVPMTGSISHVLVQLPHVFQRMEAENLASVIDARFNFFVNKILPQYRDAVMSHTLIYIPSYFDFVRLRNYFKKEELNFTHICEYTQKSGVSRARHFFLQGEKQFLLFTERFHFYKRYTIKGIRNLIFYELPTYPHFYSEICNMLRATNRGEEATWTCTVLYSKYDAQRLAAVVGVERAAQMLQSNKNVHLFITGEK
# Method in brief: as §1
smiles,measurement,setting,value
Nc1nc2c(ncn2[C@@H]2O[C@H](COP(=O)(O)OP(=O)(O)OP(=O)(O)O)[C@@H](O)[C@H]2O)c(=O)[nH]1 [guanosine triphosphate],NP40-soluble protein abundance,[1]; concentration: 4mM,1.29 ± 0.093
same,NP40-soluble protein abundance,[1]; concentration: 6mM,1.36 ± 0.13
same,NP40-soluble protein abundance,[1]; concentration: 8mM,1.43 ± 0.12
same,NP40-soluble protein abundance,[1]; concentration: 10mM,1.6 ± 0.15
same,NP40-soluble protein abundance,SLFN11; concentration: 0.1mM,1.24 ± 0.095
same,NP40-soluble protein abundance,SLFN11; concentration: 0.5mM,1.11 ± 0.036
same,NP40-soluble protein abundance,SLFN11; concentration: 1mM,1.17 ± 0.069
same,NP40-soluble protein abundance,SLFN11; concentration: 2mM,1.1 ± 0.09
same,NP40-soluble protein abundance,SLFN11; concentration: 4mM,1.28 ± 0.12
same,NP40-soluble protein abundance,SLFN11; concentration: 6mM,1.08 ± 0.015
same,NP40-soluble protein abundance,SLFN11; concentration: 8mM,1.17 ± 0.016
same,NP40-soluble protein abundance,SLFN11; concentration: 10mM,0.978 ± 0.096
same,NP40-soluble protein abundance,UniProt Q5VST6; concentration: 0.1mM,1.02 ± 0.063
same,NP40-soluble protein abundance,UniProt Q5VST6; concentration: 0.5mM,0.971 ± 0.026
same,NP40-soluble protein abundance,UniProt Q5VST6; concentration: 1mM,0.97 ± 0.064
same,NP40-soluble protein abundance,UniProt Q5VST6; concentration: 2mM,0.889 ± 0.032
same,NP40-soluble protein abundance,UniProt Q5VST6; concentration: 4mM,0.938 ± 0.015
same,NP40-soluble protein abundance,UniProt Q5VST6; concentration: 6mM,0.86 ± 0.046
same,NP40-soluble protein abundance,UniProt Q5VST6; concentration: 8mM,0.916 ± 0.054
same,NP40-soluble protein abundance,UniProt Q5VST6; concentration: 10mM,0.839 ± 0.049
same,NP40-soluble protein abundance,UniProt Q5W0B1; concentration: 0.1mM,0.947 ± 0.091
same,NP40-soluble protein abundance,UniProt Q5W0B1; concentration: 0.5mM,0.972 ± 0.068
same,NP40-soluble protein abundance,UniProt Q5W0B1; concentration: 1mM,1 ± 0.044
same,NP40-soluble protein abundance,UniProt Q5W0B1; concentration: 2mM,0.996 ± 0.067
same,NP40-soluble protein abundance,UniProt Q5W0B1; concentration: 4mM,1.05 ± 0.12
same,NP40-soluble protein abundance,UniProt Q5W0B1; concentration: 6mM,1.1 ± 0.1
same,NP40-soluble protein abundance,UniProt Q5W0B1; concentration: 8mM,1.16 ± 0.16
same,NP40-soluble protein abundance,UniProt Q5W0B1; concentration: 10mM,1.19 ± 0.16
same,NP40-soluble protein abundance,UniProt Q68CQ4; concentration: 0.1mM,1.02 ± 0.068
same,NP40-soluble protein abundance,UniProt Q68CQ4; concentration: 0.5mM,1.02 ± 0.051
same,NP40-soluble protein abundance,UniProt Q68CQ4; concentration: 1mM,1.01 ± 0.048
same,NP40-soluble protein abundance,UniProt Q68CQ4; concentration: 2mM,0.992 ± 0.04
same,NP40-soluble protein abundance,UniProt Q68CQ4; concentration: 4mM,0.999 ± 0.026
same,NP40-soluble protein abundance,UniProt Q68CQ4; concentration: 6mM,0.994 ± 0.042
same,NP40-soluble protein abundance,UniProt Q68CQ4; concentration: 8mM,1.02 ± 0.046
same,NP40-soluble protein abundance,UniProt Q68CQ4; concentration: 10mM,1.03 ± 0.048

# Not a retest: entries from further up.
smiles,measurement,setting,value
Nc1nc2c(ncn2[C@@H]2O[C@H](COP(=O)(O)OP(=O)(O)OP(=O)(O)O)[C@@H](O)[C@H]2O)c(=O)[nH]1 [guanosine triphosphate],NP40-soluble protein abundance,SLFN11; concentration: 0.1mM,1.24 ± 0.095
same,NP40-soluble protein abundance,SLFN11; concentration: 0.5mM,1.11 ± 0.036
same,NP40-soluble protein abundance,SLFN11; concentration: 1mM,1.17 ± 0.069
